PubChem BioAssay AID1259405, NCATS | 2018

Test: 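Silenced genes that increase secreted GFP made by CHO cells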 (primary screen)
System: Chinese hamster CHO-K1 ovary cells with stable secreted eGFP expression
Knock-down reagent: single siRNA against mouse genes, 0.8 pmol siRNA per well (2 µl of 400 nM stock)
Timing: 3 days
Measured: 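Per-well intracellular GFP measured by laser scanning cytometry, plus viability from ATP luminescence, each relative to plate median of non-targeting control wells, in %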
Scale: GFP, % of control: higher = more GFP per well, higher productivity; viability (ATP), % of control: higher = more viable cells (more ATP)
Hit rule: 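Called active when intracellular GFP, relative to negative control, is at or above 120%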
The deposit covers about 50,000 reagents; this is a random part of them. Of all reagents, about 4,000 (8%) were called active. 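Mouse siRNA library applied to hamster cells; one well for each siRNA.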 Unmarked entries are inactive. Reagents against one gene are numbered here. Reagent sequences are not shown.

target | reagent no. | GFP, % of control | viability (ATP), % of control
Zfp287 | 1 | 64.5 | 102
Zfp287 | 2 | 36.6 | 40.9
Zfp287 | 3 | 73.3 | 90
Ifitm1 | 1 | 60 | 66.6
Ifitm1 | 2 | 61.6 | 78.3
Ifitm1 | 3 | 64.7 | 28.8
Or6c2 | 1 | 92.1 | 81.7
Or6c2 | 2 | 25.1 | 38.1
Or6c2 | 3 | 118 | 36.8
Ppp1r17 | 1 | 38.1 | 52.6
Ppp1r17 | 2 | 81.6 | 61.5
Ppp1r17 | 3 | 71.9 | 79.2
Tmem200a | 1 | 44.5 | 76
Tmem200a | 2 | 58.9 | 77.4
Tmem200a | 3 | 119 | 123
Mfap4 | 1 | 68.3 | 117
Mfap4 | 2 | 62.4 | 65.7
Acin1 | 1 | 44.7 | 55
Acin1 | 2 | 72.1 | 51.9
Acin1 | 3 | 52.3 | 75.5
Snapc3 | 1 | 69.1 | 71.1
Snapc3 | 2 | 79 | 67.8
Snapc3 | 3 | 88.3 | 79.4
Or5k8 | 1 | 86.2 | 51.8
Or5k8 | 2 | 58.9 | 69.1
Or5k8 | 3 | 48.2 | 104
Snx12 | 1 | 63.3 | 64.4
Snx12 | 2 | 72.9 | 69.4
Snx12 | 3 | 40 | 43.6
Or4p23 | 1 | 65.3 | 54.6
Or4p23 | 2 | 71.7 | 73.7
Or4p23 | 3 | 52.8 | 78.7
Myoc | 1 | 80.3 | 99.4
Myoc | 2 | 118 | 69.8
Myoc | 3 | 103 | 92.2
Smpdl3b | 1 | 89.1 | 55
Smpdl3b | 2 | 70.1 | 87.2
Smpdl3b | 3 | 107 | 87.4
Oca2 | 1 | 123 (active) | 87.7
Oca2 | 2 | 152 (active) | 111
Oca2 | 3 | 105 | 92.6
Wars2 | 1 | 74.5 | 75.6
Wars2 | 2 | 115 | 99.2
Ipp | 1 | 97.8 | 78.9
Ipp | 2 | 62.5 | 101
Elobl | 1 | 151 (active) | 166
Elobl | 2 | 63.5 | 76.6
Elobl | 3 | 71.9 | 89.6
Ren2 | 1 | 125 (active) | 82.8
Ren2 | 2 | 81.3 | 60.6
Ren2 | 3 | 82.6 | 84.9
Lrfn5 | 1 | 68.5 | 61.6
Lrfn5 | 2 | 83.3 | 83.2
Lrfn5 | 3 | 68.1 | 58.9
Slc14a2 | 1 | 115 | 88.6
Slc14a2 | 2 | 107 | 60.9
Slc14a2 | 3 | 75.9 | 65.7
Mfsd1 | 1 | 109 | 89.6
Mfsd1 | 2 | 68.9 | 32.1
Mfsd1 | 3 | 130 (active) | 102
Nop56 | 1 | 104 | 86.5
Nop56 | 2 | 91.8 | 96.3
Krtap12-1 | 1 | 64.3 | 79.8
Krtap12-1 | 2 | 61.9 | 58.8
Krtap12-1 | 3 | 110 | 81.7
Tas2r108 | 1 | 59 | 70.5
Tas2r108 | 2 | 76.5 | 101
Tas2r108 | 3 | 98.3 | 116
Bsx | 1 | 67.5 | 74.8
Bsx | 2 | 61.6 | 65.5
Bsx | 3 | 65.3 | 63.4
Slc1a6 | 1 | 70 | 53.2
Slc1a6 | 2 | 124 (active) | 95.6
Slc1a6 | 3 | 77.4 | 67.2
Amy2a5 | 1 | 91.8 | 81
Amy2a5 | 2 | 135 (active) | 124
Amy2a5 | 3 | 39.6 | 55.4
Atp13a5 | 1 | 84.9 | 82.4
Atp13a5 | 2 | 68.9 | 77.7
Atp13a5 | 3 | 49.5 | 69.8
Capsl | 1 | 107 | 86.7
Capsl | 2 | 68.7 | 45.8
Capsl | 3 | 49.7 | 64.1
Fundc1 | 1 | 60.2 | 75.9
Fundc1 | 2 | 83.6 | 87.9
Fundc1 | 3 | 65.4 | 58.1
Tenm1 | 1 | 62.6 | 34.3
Tenm1 | 2 | 73.5 | 90
Tenm1 | 3 | 59.2 | 76.4
Apol7a | 1 | 58.4 | 43.4
Apol7a | 2 | 87.5 | 104
Apol7a | 3 | 78.2 | 83.4
Igfn1 | 1 | 60.7 | 66.3
Igfn1 | 2 | 88.3 | 84.6
Igfn1 | 3 | 73.4 | 69.6
Nefl | 1 | 89.5 | 72.5
Nefl | 2 | 79.5 | 79.4
Slc44a4 | 1 | 100 | 115
Slc44a4 | 2 | 60.6 | 56.4
Slc44a4 | 3 | 96.6 | 111
Fyn | 1 | 76.2 | 58.8
Trp73 | 1 | 89.7 | 96.2
Trp73 | 2 | 106 | 109
Trp73 | 3 | 80.6 | 84.2
Safb2 | 1 | 119 | 76.4
Safb2 | 2 | 75.3 | 53.6
Safb2 | 3 | 89 | 95.6
